# Test results published in US20250136677A1 (ZOETIS SERVICES, published 2025).
# Results are given in words; binding and its absence hold for the method and conditions named. Some results given as binding are weak or reduced against the parent protein; the word gives no strength.
# T1: equine IL-31 protein (Equine_IL31) (equine)
# T1 construct: Recombinant equine IL-31
# T1 chain: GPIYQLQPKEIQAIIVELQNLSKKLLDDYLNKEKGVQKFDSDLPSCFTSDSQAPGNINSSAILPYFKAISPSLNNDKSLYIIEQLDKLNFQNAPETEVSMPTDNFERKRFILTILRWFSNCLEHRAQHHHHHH
# T2: wildtype feline IL-31 protein (Feline_IL31_wildtype) (feline)
# T2 sequence: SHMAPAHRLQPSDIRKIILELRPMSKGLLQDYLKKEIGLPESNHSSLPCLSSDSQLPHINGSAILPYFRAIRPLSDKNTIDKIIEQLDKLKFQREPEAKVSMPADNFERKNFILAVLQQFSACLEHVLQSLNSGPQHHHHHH
# T3: mutant feline IL-31 15H05 protein (Feline_IL31_15H05_mutant) (feline)
# T3 sequence: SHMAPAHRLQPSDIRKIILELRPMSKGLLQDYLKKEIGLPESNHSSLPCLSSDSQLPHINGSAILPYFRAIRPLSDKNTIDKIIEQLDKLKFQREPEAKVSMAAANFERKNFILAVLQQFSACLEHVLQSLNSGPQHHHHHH
# T4: mutant feline IL-31 11E12 protein (Feline_IL31_11E12_mutant) (feline)
# T4 sequence: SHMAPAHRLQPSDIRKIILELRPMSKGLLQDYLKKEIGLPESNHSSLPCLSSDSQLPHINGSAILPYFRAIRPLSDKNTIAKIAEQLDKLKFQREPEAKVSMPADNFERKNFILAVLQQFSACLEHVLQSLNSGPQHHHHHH
# How the values were obtained:
# [1] = biological target: T1, equine IL-31 protein (Equine_IL31); assay: SPR (Biacore), IL-31 surface, single test concentration of antibody (FIG. 4)
# [2] = biological target: T1, equine IL-31 protein (Equine_IL31); assay: SPR (Biacore), IL-31 surface, single antibody concentration
# Procedure: For the indirect ELISA method, antibody binding to wildtype and feline IL-31 15H05 mutant proteins was assessed. All nine canine monoclonal antibodies (ZIL1, ZIL8, ZIL8, ZIL11, ZIL69, ZIL94, ZIL154, ZIL159, and ZIL171) were capable of binding to wildtype feline IL-31 and binding was impacted by mutations in the mAb 15H05 epitope region confirming the correct binding phenotype determined during the initial screening used to identify them. In comparison, the 11E12 antibody bound to the wild-type feline IL-31 and its binding was not impacted by the mutations in the 15H05 epitope region as evidenced by the data in FIG. 4. To confirm binding, biacore analysis was performed using canine, feline, equine, human, feline 15H05 mutant, and feline 11E12 mutant IL-31 proteins as surfaces and a single test concentration of antibody. Similar to ELISA observations, all antibodies tested bound to wildtype feline IL-31. In agreement with the data described above in this section, mouse antibodies 11E12 and 15H05 both bound to canine and feline IL-31 surfaces. Three additional antibodies where shown to have this dual binding property, ZIL69 (partial canine binding), ZIL94, and ZIL159. From this group of nine fully canine antibodies, only ZIL1 and ZIL9 cross-reacted with equine IL-31. […]
# [3] = biological target: T2, wildtype feline IL-31 protein (Feline_IL31_wildtype) (feline); assay: as above
# [4] = biological target: T2, wildtype feline IL-31 protein (Feline_IL31_wildtype) (feline); assay: SPR (Biacore), IL-31 surface, single test concentration of antibody (FIG. 4)
# [5] = biological target: T2, wildtype feline IL-31 protein (Feline_IL31_wildtype) (feline); assay: indirect ELISA, coated IL-31 protein (FIG. 4)
# [6] = biological target: T3, mutant feline IL-31 15H05 protein (Feline_IL31_15H05_mutant) (feline); assay: SPR (Biacore), IL-31 surface, single antibody concentration
# [7] = biological target: T4, mutant feline IL-31 11E12 protein (Feline_IL31_11E12_mutant) (feline); assay: as above
binding [1],binding [2],binding [3],binding [4],binding [5],binding [6],binding [7],Binder
binds,binds,,,,,,"ZIL1 (recombinant fully canine antibody) (antibody, V domains shown) VH: EVQLVESGGDLVKPGGSLRLSCVASGFTFSSYGMSWVRQAPGKGLQWVAHINSGGSSTYYADAVKGRFTISRDNAKNTLYLQMNSLRAEDTAVYYCVEVYTTLAAFWTDNFDYWGQGTLVTVSS VL: QSVLTQPTSVSGSLGQRVTISCSGSTNNIGILAATWYQQLPGKAPKVLVYSDGNRPSGVPDRFSGSKSGNSATLTITGLQAEDEADYYCQSFDTTLDAYVFGSGTQLTVLR"
,,binds,binds,binds,,,"ZIL159 (recombinant fully canine antibody) (antibody, V domains shown, also called CAN-ZIL159) VH: EVQLVESGGDLVKPAGSLRLSCVASGFTFSSYVMTWVRQAPGKGLQWVAGINSEGSRTAYADAVKGRFTISRDNAKNTLYLQIDSLRAEDTAIYYCATGDIVATGTSYWGQGTLVTVSS VL: SNVLTQPPSVSVSLGQTATISCSGETLNRFYTQWFQQKAGQAPVLVIYKDTERPSGIPDRFSGSSSGNIHTLTISGARAEDEAAYYCKSAVSIDVGVFGGGTHLTVFR"
,,binds,binds,binds,binds,binds,"ZIL94 (recombinant fully canine antibody) (antibody, V domains shown, also called CAN-ZIL94) VH: EVQLVDSGGDLVKPGGSLRLSCVASGFTFSTYFMSWVRQAPGRGLQWVALISSDGSGTYYADAVKGRFTISRDNAKNTLYLQMNSLRAEDTAMYYCAIFWRAFNDWGQGTLVTVSS VL: QTVVIQEPSLSVSPGGTVTLTCGLNSGSVSTSNYPGWYQQTRGRTPRTIIYDTGSRPSGVPNRFSGSISGNKAALTITGAQPEDEADYYCSLYTDSDILVFGGGTHLTVLR"
binds,binds,,,,,,"ZIL9 (recombinant fully canine antibody) (antibody, V domains shown) VH: EVQLVESGGDLVKPPGSLRLSCVASGFTFSSYDMTWVRQAPGKGLQWVADVNSGGTGTAYAVAVKGRFTISRDNAKKTLYLQMNSLRAEDTAVYYCAKLGVRDGLSVWGQGTLVTVSS VL: SSVLTQPPSVSVSLGQTATISCSGESLNEYYTQWFQQKAGQAPVLVIYRDTERPSGIPDRFSGSSSGNTHTLTISGARAEDEADYYCESAVDTGTLVFGGGTHLAVLR"
